PubChem BioAssay AID1259254 – NCATS – 2017
Shown is a random part of about 59,000 reagents tested. In the full data, about 1,550 (2.6%) were called active. 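G2 share is only a proxy for re-replication; each gene was hit by three separate siRNAs, and active genes were retested.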 Entries without a mark were called inactive. Reagents against one gene are numbered here. Further read-outs or replicates are left out here. No sequences are given here. Not stated in the record: the amount of reagent.

Aim: 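Gene knock-downs that lead to re-replication, shown by excess G2 DNA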 (primary screen)
System: human HCT116 colorectal cancer cells
Reagents: single siRNA against human genes
Duration: 3 days
Detection: 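Nuclei stained with Hoechst and imaged; cell-cycle phase assigned by DNA content; G2 share scaled per plate, non-targeting siRNA 0%, GMNN siRNA 100%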
Reading the numbers: G2 robust z-score: higher = more G2 cells, more excess DNA replication
Rule for the call: 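Active siRNAs have a G2 robust z of 5 or more median absolute deviations over the median, which in these data means about 38% or higher of GMNN control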

target gene | siRNA no. | G2 robust z-score
B4GALT4 | 1 | 2.5
B4GALT4 | 2 | -1.32
B4GALT4 | 3 | -0.813
PLD5 | 1 | -0.0981
PLD5 | 2 | 0.336
PLD5 | 3 | -1.03
RAB18 | 1 | 0.585
RAB18 | 2 | 0.926
RAB18 | 3 | 0.153
GLIPR2 | 1 | 2.87
GLIPR2 | 2 | -0.568
GLIPR2 | 3 | -0.791
TTLL1 | 1 | 3.39
TTLL1 | 2 | -1.15
TTLL1 | 3 | 3.49
RPL14P1 | 1 | 2.82
RPL14P1 | 2 | 1.83
RPL14P1 | 3 | 0.996
SBK2 | 1 | -0.866
SBK2 | 2 | -0.234
SBK2 | 3 | -0.257
NOAZFP | 1 | 1.67
NOAZFP | 2 | 2.55
NOAZFP | 3 | -0.0604
DLL1 | 1 | -0.473
DLL1 | 2 | -0.524
DLL1 | 3 | -0.307
LGR6 | 1 | 4.16
LGR6 | 2 | 1.67
LGR6 | 3 | -0.928
SPTLC2 | 1 | 0.867
SPTLC2 | 2 | -0.356
SPTLC2 | 3 | -0.0385
MPHOSPH8 | 1 | -1.18
MPHOSPH8 | 2 | 2.73
MPHOSPH8 | 3 | 1.34
TRIM33 | 1 | -0.596
TRIM33 | 2 | -0.831
TRIM33 | 3 | 1.48
PLAG1 | 1 | 3.85
PLAG1 | 2 | 0.896
PLAG1 | 3 | -0.575
FKBP10 | 1 | 0.242
FKBP10 | 2 | -0.679
FKBP10 | 3 | -0.62
LOC643855 | 1 | -0.456
LOC643855 | 2 | -0.665
LOC643855 | 3 | 1.34
DDX12P | 1 | 1.2
DDX12P | 2 | 0.635
DDX12P | 3 | 3.33
PGPEP1L | 1 | -0.743
PGPEP1L | 2 | 1.69
PGPEP1L | 3 | -0.202
ZNF2 | 1 | 0.385
ZNF2 | 2 | -0.589
ZNF2 | 3 | -0.495
CPSF1 | 1 | 7.72 (active)
CPSF1 | 2 | 0.32
CPSF1 | 3 | 11.2 (active)
DEFB121 | 1 | 0.384
DEFB121 | 2 | -0.643
DEFB121 | 3 | 0.243
ZNF79 | 1 | -1.02
ZNF79 | 2 | -0.818
ZNF79 | 3 | -0.644
HSFY1 | 1 | 1.2
HSFY1 | 2 | 1.99
HSFY1 | 3 | 0.142

Reformatted: entries from further up
{"target gene": "NOAZFP", "siRNA no.": 3, "G2 robust z-score": -0.0604}
{"target gene": "DLL1", "siRNA no.": 1, "G2 robust z-score": -0.473}
{"target gene": "DLL1", "siRNA no.": 2, "G2 robust z-score": -0.524}
{"target gene": "DLL1", "siRNA no.": 3, "G2 robust z-score": -0.307}
{"target gene": "LGR6", "siRNA no.": 1, "G2 robust z-score": 4.16}
{"target gene": "LGR6", "siRNA no.": 2, "G2 robust z-score": 1.67}
{"target gene": "LGR6", "siRNA no.": 3, "G2 robust z-score": -0.928}
{"target gene": "SPTLC2", "siRNA no.": 1, "G2 robust z-score": 0.867}
{"target gene": "SPTLC2", "siRNA no.": 2, "G2 robust z-score": -0.356}
{"target gene": "SPTLC2", "siRNA no.": 3, "G2 robust z-score": -0.0385}
{"target gene": "MPHOSPH8", "siRNA no.": 1, "G2 robust z-score": -1.18}
